Data taken from the supplement of paper PMC3334620.
Over roughly 33,000 sequences, “E-score (-0.5 to 0.5)” has its median near -0.015; the highest 2% begin near 0.3. The list shows a part of the results.

biological target: T1, Abf1 (UniProt P14164); test: PBM E-score (8-mer binding enrichment) (E-score (-0.5 to 0.5)); higher = stronger / more preferred TF binding; details: protein concentration: 200 nM; construct: GST-full length
T1 sequence: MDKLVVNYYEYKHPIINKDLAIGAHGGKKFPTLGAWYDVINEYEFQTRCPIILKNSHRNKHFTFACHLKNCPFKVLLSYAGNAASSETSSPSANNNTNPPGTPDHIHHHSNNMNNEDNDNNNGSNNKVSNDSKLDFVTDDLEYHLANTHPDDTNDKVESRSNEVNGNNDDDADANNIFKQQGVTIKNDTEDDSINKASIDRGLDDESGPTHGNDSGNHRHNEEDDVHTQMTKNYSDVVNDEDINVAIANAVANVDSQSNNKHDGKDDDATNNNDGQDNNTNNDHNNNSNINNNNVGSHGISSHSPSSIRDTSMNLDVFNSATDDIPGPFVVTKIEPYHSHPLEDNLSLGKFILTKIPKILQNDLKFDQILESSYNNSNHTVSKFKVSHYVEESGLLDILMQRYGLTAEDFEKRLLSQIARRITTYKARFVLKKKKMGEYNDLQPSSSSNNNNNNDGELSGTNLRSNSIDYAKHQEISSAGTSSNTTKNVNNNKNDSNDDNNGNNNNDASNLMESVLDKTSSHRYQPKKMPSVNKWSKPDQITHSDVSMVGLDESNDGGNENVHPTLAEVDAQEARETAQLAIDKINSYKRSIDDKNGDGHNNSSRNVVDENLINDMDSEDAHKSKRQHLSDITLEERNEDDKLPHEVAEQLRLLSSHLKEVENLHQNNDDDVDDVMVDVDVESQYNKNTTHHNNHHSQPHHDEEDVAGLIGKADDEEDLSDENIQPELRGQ
How it was run: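 Universal all-10-mer Agilent arrays, fresh or stripped once, were converted to double-stranded form by primer extension. GST-tagged yeast transcription factors from PURExpress in vitro transcription/translation, full-length or DNA-binding domain only, were applied at about 100-200 nM and detected with fluorescent anti-GST. After masliner normalisation, the Universal PBM Analysis Suite scored each ungapped eight-base word together with its reverse complement by E-score.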

| Sequence | PBM E-score |
| --- | --- |
| GGCCCAAC | -0.163 |
| CTGCCAAC | 0.0337 |
| ACTTAGGC | -0.111 |
| ACCCCGTC | -0.125 |
| CCCGGAGG | -0.341 |
| CACTCTAG | -0.0155 |
| GATCACAC | 0.118 |
| CGGTTCCA | -0.112 |
| GCTGTCAC | 0.197 |
| AGGGTTTC | -0.165 |
| CCTTATTC | -0.168 |
| ACAACGTA | 0.0482 |
| ACACCGCC | -0.25 |
| AGAACGGG | -0.0329 |
| CTGAAAAA | -0.193 |
| CGGCCCCG | 0.0002 |
| AGGGTTAC | -0.0529 |
| AAATCAAT | 0.142 |
| AACAAGAT | 0.133 |
| CAACCGCG | 0.0301 |
| CGATGCAC | 0.0188 |
| AGTCCAGG | -0.19 |
| GCAGGCAA | -0.1 |
| CTATCTAA | -0.0314 |
| CAAACATC | 0.0506 |

| Sequence | PBM E-score |
| --- | --- |
| AACGCGCC | -0.248 |
| AAATAGTT | 0.0304 |
| TATCAGGA | 0.086 |
| ACAGGTAC | -0.146 |
| CCCATTGC | -0.186 |
| GCGGACGC | -0.291 |
| CTCGACTC | -0.0367 |
| ACCTACAA | 0.0806 |
| ATGGTAAG | -0.108 |
| GAAATTCC | -0.102 |
| GCGCTCAA | -0.125 |
| CACCCTAA | 0.0127 |
| ACAGTTCA | 0.11 |
| CATTCTGA | 0.0829 |
| GGATGGAC | -0.0851 |
| GTCTGTAA | 0.0954 |
| GAACGATC | 0.298 |
| TCACTGGA | 0.116 |
| CCTCCCGA | -0.188 |
| CTACCCGC | -0.0209 |
| CGCCTCCA | -0.126 |
| ATCACTGC | 0.32 |
| AATTCTGG | -0.188 |
| CATCGAAG | 0.06 |
| ATTCGTGC | 0.173 |

| Sequence | PBM E-score |
| --- | --- |
| GATTCGTA | 0.262 |
| AACAACCC | -0.06 |
| CTGTCCTA | -0.0805 |
| CCCCTTAG | -0.23 |
| ACTAGTCG | -0.143 |
| CGATTGCA | 0.163 |
| ACTCTAAG | -0.156 |
| AAGTGCTG | 0.257 |
| TGATAGAA | 0.0481 |
| AATGTTGA | -0.163 |
| GATTCTTA | 0.235 |
| AAAGGCTT | -0.251 |
| TCTCCAAA | -0.0776 |
| CGCTATCC | 0.0588 |
| AGGTCTAC | -0.124 |
| ACTCATTC | -0.102 |
| GTATATTA | 0.102 |
| ACTTATTA | 0.047 |
| ACCAGTTC | -0.114 |
| CATAAGCG | -0.178 |
| CCTTGGCG | -0.218 |
| CGAATAGA | -0.0743 |
| GCACTCGA | -0.12 |
| CTTCCACC | -0.204 |
| CCGGTACG | 0.0211 |

| Sequence | PBM E-score |
| --- | --- |
| AGGAGTAA | -0.139 |
| GAGCTTAA | -0.125 |
| GCTGTTCC | -0.237 |
| ATGCTATG | 0.102 |
| AAGTTGGC | -0.168 |
| ATCAGGGA | -0.0561 |
| GCCATCCA | -0.171 |
| CGTGTGAC | 0.11 |
| CCGGAGAA | -0.225 |
| ATCTAGTA | 0.175 |
| GTCCGTAA | 0.239 |
| ACGAAACT | 0.336 |
| GCGCCCAC | -0.012 |
| AGAGGGCA | -0.0417 |
| ATAGCGAC | 0.232 |
| ACATGTCT | -0.0552 |
| AAAGTGAG | 0.2 |
| CGCAGCGC | -0.253 |
| ATTCGTCC | 0.296 |
| ATATACGA | 0.324 |
| ATGACTGA | -0.0877 |
| GAACCGCA | -0.0218 |
| AACCTAGA | 0.0342 |
| AAGCAACG | 0.0263 |
| GTCTCTTA | -0.0443 |

| Sequence | PBM E-score |
| --- | --- |
| CGCATTCA | 0.0242 |
| AATGCTAC | 0.0314 |
| CTAGTGGA | -0.237 |
| ACGGGTCG | 0.0659 |
| ATATCACC | 0.438 |
| CGCGCCAA | -0.173 |
| TGAAGGAA | 0.153 |
| CCGTTCTA | 0.032 |
| CGCATCAG | -0.057 |
| CCGCAACA | -0.0444 |
| ACGAAGCT | 0.278 |
| AGAGCCGC | -0.174 |
| ACATTGGA | -0.0535 |
| ATGTAGCC | -0.047 |
| ATTTAATG | 0.107 |
| ATGATCAA | 0.273 |
| GGTCCTAC | -0.126 |
| CCGGTTAC | -0.0314 |
| ATCAACCA | 0.181 |
| CCGAGCCG | -0.181 |
| AGCGCTGA | 0.0277 |
| CATGGCAG | -0.141 |
| GCTGATCA | 0.139 |
| TATTGAAA | 0.0891 |
| ATTCTTGA | 0.155 |

| Sequence | PBM E-score |
| --- | --- |
| ATTGCCCG | -0.0211 |
| CCCTCACC | -0.153 |
| CGCAAATA | -0.0387 |
| GATTTCAC | 0.104 |
| GCCGCCAA | -0.0421 |
| GGGCGTCA | -0.168 |
| ACGAAATC | 0.291 |
| AGTCGAAC | 0.0892 |
| AGCGATCG | 0.154 |
| CAATCGCC | -0.187 |
| ATCAGCAC | 0.102 |
| AATTCAAT | 0.116 |
| GAACATGC | 0.0748 |
| CAACACAA | 0.0724 |
| ATAACATG | 0.153 |
| AGCGCTGC | -0.0448 |
| ACCCAATA | 0.0153 |
| CCGACGCA | -0.271 |
| AACCGGAA | -0.0581 |
| TGGGGTAA | 0.043 |
| AATGGGCT | 0.0643 |
| GCGCGGCC | -0.205 |
| CATGCGCA | 0.0599 |
| ACGCCCTG | -0.103 |
| GCTTTAAA | -0.0185 |

Single entries from above:
PBM E-score, AGCGCTGC reads -0.0448
PBM E-score, AGCGATCG reads 0.154
PBM E-score, CGCAAATA reads -0.0387
PBM E-score, AATTCAAT reads 0.116
PBM E-score, TGGGGTAA reads 0.043

Additional results

| Sequence | PBM E-score |
| --- | --- |
| CCGCGTCG | 0.106 |
| AAGAGGGG | -0.225 |
| ATACATAT | 0.285 |
| AATGTAAG | 0.153 |
| ACGCAGGA | -0.0522 |
| GATAATAC | 0.198 |
| AATAAACG | 0.0929 |
| AGATATTC | 0.0375 |
| ACATCTTG | -0.142 |
| AGCCTCTA | -0.306 |
| CCCACCCC | -0.0982 |
| CAGAGTGC | -0.0102 |
| AACAGGGA | -0.108 |
| CGAATGCA | 0.231 |
| AGGAGCAC | -0.0536 |
| CATGTGTA | -0.0484 |
| AGGCCAAG | -0.328 |
| AACCCTAC | -0.301 |
| ATTATACG | 0.331 |
| ATGGACCC | 0.0136 |
| ACTTGCTG | -0.0416 |
| ACGGCCTC | 0.0938 |
| GTTTACAA | 0.101 |
| TCCGCCAA | -0.078 |
| CTCATTAC | 0.148 |

| Sequence | PBM E-score |
| --- | --- |
| GGCATGCA | -0.00804 |
| GGCTCGTA | 0.162 |
| CTACCCTA | -0.311 |
| TCCTCTAA | 0.0384 |
| TAGGGTGA | 0.18 |
| CCAGACAA | -0.304 |
| TACTACGA | 0.241 |
| TAACCCGA | 0.0021 |
| GACTGCAC | -0.0655 |
| GGTCACAC | -0.152 |
| ACGACTTA | -0.0279 |
| CCGAGTAA | 0.0634 |
| CTGAAGAC | -0.146 |
| CAGCACCG | -0.0675 |
| CGGAGATA | 0.062 |
| AGTCCAGA | -0.165 |
| AGGAGCTA | -0.223 |
| ATCCCGTA | 0.215 |
| AAGGGATC | -0.0505 |
| ATCGGGAC | -0.145 |
| CGTCTCCA | 0.0242 |
| ACAAATAC | 0.142 |
| ACAGTAGA | 0.0269 |
| AGGGTACG | 0.0726 |
| ATCCTAGA | 0.0959 |

Pulled one by one from the entries so far:

| Sequence | PBM E-score |
| --- | --- |
| AATAAACG | 0.0929 |
| AAATCAAT | 0.142 |
| CCGGTACG | 0.0211 |

Later entries

| Sequence | PBM E-score |
| --- | --- |
| ACGTCCCC | -0.0168 |
| AGTGTGAC | 0.0994 |
| GGCGCGGA | -0.219 |
| ATAGTCGG | 0.0162 |
| CAGTAGGG | -0.225 |
| CCGGACTC | 0.00428 |
| AGCTGATG | -0.0224 |
| CCGAAGCC | -0.143 |
| CAGTGCGA | -0.0265 |
| CAGGCTTC | -0.0854 |
| AATTAGTC | 0.0846 |
| AATCCCCT | -0.129 |
| GCCCAACA | -0.0999 |
| CAGTACAG | -0.0549 |
| AAAGGATA | 0.183 |
| AGCGGTAC | -0.161 |
| ATTGAGAG | -0.0221 |
| ACTGGTCA | 0.0755 |
| GATTATAA | 0.156 |

Taken from the listing (6 entries):

| Sequence | PBM E-score |
| --- | --- |
| CAGTACAG | -0.0549 |
| AAAGGATA | 0.183 |
| AGCGGTAC | -0.161 |
| ATTGAGAG | -0.0221 |
| ACTGGTCA | 0.0755 |
| GATTATAA | 0.156 |
